Only a part is listed here, and it is no random draw. Results filed as inconclusive are left out. Calls of active or inactive are those of the source. How the source made its calls: active means hit-call score of the fitted dose curve at least 0.9, where 1 is the maximum; inconclusive means response in the unintended direction; inactive means score below 0.9.
These compounds were tested against human Peroxisome Proliferator-activated Receptor delta (PPARd), PPARD (gene 5467) (UniProt Q03181) (assay: ATG_PPARd_TRANS: Attagene TRANS-FACTORIAL HepG2 Assay for human Peroxisome Proliferator-activated Receptor delta (PPARd) (AID 2283002)).
Summary of the method: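 HepG2 cells transiently transfected with GAL4-UAS multiplexed reporter units driven by exogenous chimeric NR-GAL4 proteins; 24 h compound exposure. Reporter mRNA measured by RT-PCR, 6-FAM primer extension, HpaI digestion and capillary electrophoresis; gain of signal fitted relative to DMSO.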

By UniProt entry, the sequences of proteins in these tests, tags left out. Where a name states a change or a piece, a line headed by the entry shows the natural chain unless it says otherwise.
UniProt Q03181: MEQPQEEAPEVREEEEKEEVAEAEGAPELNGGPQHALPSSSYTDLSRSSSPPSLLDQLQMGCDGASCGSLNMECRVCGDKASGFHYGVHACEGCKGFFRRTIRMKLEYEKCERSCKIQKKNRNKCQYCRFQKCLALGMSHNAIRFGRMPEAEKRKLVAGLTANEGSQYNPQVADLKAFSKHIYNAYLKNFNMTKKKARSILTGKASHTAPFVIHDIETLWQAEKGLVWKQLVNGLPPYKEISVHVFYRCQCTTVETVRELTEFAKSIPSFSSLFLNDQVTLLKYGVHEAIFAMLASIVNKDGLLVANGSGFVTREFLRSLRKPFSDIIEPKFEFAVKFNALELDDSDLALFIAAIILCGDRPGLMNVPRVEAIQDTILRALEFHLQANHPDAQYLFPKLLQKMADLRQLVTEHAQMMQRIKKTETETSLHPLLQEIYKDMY

outcome, inactive:
N#CSCSc1nc2ccccc2s1
OC1CCC(C2CCCCC2)CC1 (stereo not given)
CC(C)(c1cc(Br)c(O)c(Br)c1)c1cc(Br)c(O)c(Br)c1
CCCCCCCCCCCCN1CCOCC1
[Cl][Bi]([Cl])([c]1ccccc1)([c]1ccccc1)[c]1ccccc1
CC(Cc1ccc(O)c(O)c1)C(C)Cc1ccc(O)c(O)c1 (stereo not given)
CCN=C1C=CC(=C(c2ccc(N(CC)CC)cc2)c2ccc(N(CC)CC)cc2)c2ccccc21
c1ccc(Nc2cccc3ccccc23)cc1
C=C(c1ccc(C(=O)O)cc1)c1cc2c(cc1C)C(C)(C)CCC2(C)C
C=C1CC[C@H](O)C/C1=C/C=C1\CCC[C@]2(C)[C@@H]([C@H](C)/C=C/[C@H](C)C(C)C)CC[C@@H]12
